# According to article PMC10709327, “A class of secreted mammalian peptides with potential to expand cell-cell communication” (Nature Communications, 2023):
# Where a SMILES comes first, the peptide text is derived from it. [ ]: non-standard residue; d: D form. pGlu = O=C1CC[C@@H](C(=O)O)N1
# Tests used:
# [1] = LC-MS quantification of endogenous capped peptides in mouse plasma; details: for endogenous concentration in mouse plasma, average concentration: mean of plasma 1-3 (N = 3 pooled mouse plasma samples), LC-QTOF, standard curve; for endogenous concentration in mouse plasma, plasma 1 / endogenous concentration in mouse plasma, plasma 2 / endogenous concentration in mouse plasma, plasma 3: pooled mouse plasma, 1 ml per replicate; for endogenous concentration in mouse plasma, plasma 1: LC-QTOF peak integration against standard curve (100 nM and 10 nM standards), replicate plasma 1; for endogenous concentration in mouse plasma, plasma 2 / endogenous concentration in mouse plasma, plasma 3: LC-QTOF peak integration against standard curve; for endogenous concentration in mouse plasma, plasma 2: replicate plasma 2; for endogenous concentration in mouse plasma, plasma 3: replicate plasma 3
# [2] = LC-MS quantification of endogenous capped peptides in human plasma; details: mean of plasma 1-3 (n = 3), LC-MS MRM quantified against synthetic standards
# [3] = Dynamic regulation of circulating capped peptide levels by physiologic perturbations; type: in vivo, mouse; details: for 6 PM/6 AM log2(FC): log2 fold change between morning and evening; for LPS/Vehicle log2(FC) / Fasted/Fed log2(FC) / DIO/Lean log2(FC) / Run/Sed log2(FC): log2 fold change; for LPS/Vehicle log2(FC): 5 hour post LPS vs Vehicle injection; for Fasted/Fed log2(FC): fasted vs fed lean mice; for DIO/Lean log2(FC): fed DIO vs fed lean mice; for Run/Sed log2(FC): immediately after 1 hour running vs sedentary; for Old/Young log2(FC) / Fold change of peptides between sedentary and immediately after 1 hour running, log2(FC): mouse plasma; for Old/Young log2(FC): aged versus young mice, mean of n = 2 per group; for Fold change of peptides between sedentary and immediately after 1 hour running, log2(FC): mean of n = 3 per group
Compound,"endogenous concentration in mouse plasma, average concentration [1]","endogenous concentration in mouse plasma, plasma 1 [1]","endogenous concentration in mouse plasma, plasma 2 [1]","endogenous concentration in mouse plasma, plasma 3 [1]",average concentration [2],6 PM/6 AM log2(FC) [3],LPS/Vehicle log2(FC) [3],Fasted/Fed log2(FC) [3],DIO/Lean log2(FC) [3],Run/Sed log2(FC) [3],Old/Young log2(FC) [3],"reduction of plasma level at 6PM versus 6AM ([3]; 2-month old male mice, N = 5/group, P < 0.05)","Fold change of peptides between sedentary and immediately after 1 hour running, log2(FC) [3]"
CC[C@H](C)[C@H](NC(=O)[C@H](CCSC)NC(=O)[C@H](CCC(=O)O)NC(=O)CNC(=O)[C@H](Cc1ccccc1)NC(=O)[C@@H]1CCC(=O)N1)C(=O)N[C@@H](CCCNC(=N)N)C(=O)N[C@@H](CC(C)C)C(=O)N[C@@H](CCCCN)C(=O)N[C@H](C(N)=O)[C@@H](C)O [CAP-PLA2G2A] ([pGlu]FGEMIRLKT-NH2),0.1415 nM,0.1399 nM,0.109 nM,0.1756 nM,–,–,–,–,–,–,–,–,–
QPVCFPPRPR [CAP-LGALS9],–,–,–,–,3.6196 nM,–,–,–,–,–,–,–,–
QWGGCGDNLKYSSKFVKEFL [CAP-WNT9A],–,–,–,–,14.5507 nM,–,–,–,–,–,–,–,–
QTCVDPEDCPVCEVA [CAP-VWF],–,–,–,–,1.8401 nM,–,–,–,–,–,–,–,–
QRKCIIDILTEPKDI [CAP-FURIN],–,–,–,–,5.348 nM,–,–,–,–,–,–,–,–
"CC(C)C[C@H](NC(=O)CNC(=O)[C@H](Cc1ccc(O)cc1)NC(=O)[C@H](CO)NC(=O)[C@H](Cc1c[nH]c2ccccc12)NC(=O)[C@H](Cc1c[nH]cn1)NC(=O)[C@@H]1CCC(=O)N1)C(=O)N[C@@H](CCCNC(=N)N)C(=O)N1CCC[C@H]1C(=O)NCC(N)=O [GnRH, reference compound]",0.05523 nM,0.02876 nM,0.02725 nM,0.1097 nM,–,–,–,–,–,–,–,–,–
"QKRHFC [CAP-ADAMTS18, mouse capped peptide from ADAMTS18]",15.3773 nM,15.4721 nM,11.3869 nM,19.2727 nM,–,-0.2267,-1.042,-0.07115,-0.3088,0.3971,-0.7303,–,–
"[pGlu]AAAASPENSRGK-NH2 (SMILES C[C@H](NC(=O)[C@H](C)NC(=O)[C@H](C)NC(=O)[C@@H]1CCC(=O)N1)C(=O)N[C@@H](C)C(=O)N[C@@H](CO)C(=O)N1CCC[C@H]1C(=O)N[C@@H](CCC(=O)O)C(=O)N[C@@H](CC(N)=O)C(=O)N[C@@H](CO)C(=O)N[C@@H](CCCNC(=N)N)C(=O)NCC(=O)N[C@@H](CCCCN)C(N)=O) [CAP-GDNF, mouse capped peptide from Glial cell line-derived neurotrophic factor]",0.4203 nM,0.585 nM,0.2963 nM,0.3797 nM,1.759 nM,-1.247,0.02116,0.2258,-0.3117,1.093,0.7727,58%,–
"QEPMKKCT [CAP-PRG4, mouse capped peptide from Proteoglycan 4]",1.211 nM,0.9138 nM,0.9957 nM,1.722 nM,3.658 nM,0.3805,-0.173,-0.4992,-0.4762,0.0947,-0.7175,–,–
"QVVFEKC [CAP-MST1, mouse capped peptide from Hepatocyte growth factor-like protein]",0.06169 nM,0.106 nM,0 nM,0.07908 nM,–,-0.2031,-1.175,-1.772,-1.847,1.038,0.8207,–,–
"QPKFSFC [CAP-LY86, mouse capped peptide from Lymphocyte antigen 86]",0.2295 nM,0.2116 nM,0.0881 nM,0.3886 nM,–,-0.04087,-1.756,-0.3307,0.8634,-0.03549,0.3757,–,–
CC[C@H](C)[C@H](NC(=O)CNC(=O)[C@H](Cc1c[nH]c2ccccc12)NC(=O)[C@H](CO)NC(=O)[C@H](Cc1c[nH]cn1)NC(=O)[C@H](CO)NC(=O)[C@H](CCCCN)NC(=O)[C@@H]1CCCN1C(=O)[C@H](CC(C)C)NC(=O)[C@H](CC(C)C)NC(=O)[C@H](CC(C)C)NC(=O)[C@@H]1CCC(=O)N1)C(=O)N[C@H](C(=O)N[C@@H](CC(C)C)C(=O)N1CCC[C@H]1C(=O)N[C@@H](CC(C)C)C(=O)NCC(=O)N[C@@H](CCC(=O)O)C(=O)N[C@@H](CC(C)C)C(=O)N[C@@H](CCC(=O)O)C(N)=O)C(C)C [CAP-CSF1] ([pGlu]LLLPKSHSWGIVLPLGELE-NH2),1.773 nM,0.458 nM,2.0447 nM,2.817 nM,–,–,–,–,–,–,–,–,–
"QWRRARHNYNDLCPPI [CAP-GNAS, mouse capped peptide from Neuroendocrine secretory protein 55]",3.19 nM,1.87 nM,3.125 nM,4.575 nM,–,-0.4545,-0.2835,0.183,0.8435,–,-0.6283,–,-0.526
CC(C)C[C@H](NC(=O)[C@@H]1CCC(=O)N1)C(=O)N[C@@H](CCC(=O)O)C(=O)N[C@@H](CC(C)C)C(=O)N[C@@H](CCCNC(=N)N)C(=O)N[C@@H](CC(C)C)C(=O)N[C@@H](CCCNC(=N)N)C(=O)N[C@H](C(=O)N[C@@H](C)C(=O)N[C@@H](C)C(=O)NCC(=O)N[C@@H](CCCNC(=N)N)C(N)=O)C(C)C [CAP-GDF15] ([pGlu]LELRLRVAAGR-NH2),0.1443 nM,0.1814 nM,0.04805 nM,0.2033 nM,–,–,–,–,–,–,–,–,–
QGCLRF [CAP-Q59F13],–,–,–,–,0.5324 nM,–,–,–,–,–,–,–,–
"QPVYKPYLTLCA [CAP-EGFL8, mouse capped peptide from Epidermal growth factor-like protein 8]",2.3085 nM,1.273 nM,3.141 nM,2.512 nM,–,1.192,0.7853,2.335,1.92,–,-0.633,–,0.3776
"QLLPGMLCAGYPE [CAP-PRSS36, mouse capped peptide from Polyserase-2]",3.088 nM,5.297 nM,1.186 nM,2.7798 nM,–,-0.3148,0.08066,-0.6957,-0.3163,-0.2534,-0.3184,–,–
"QISAKKYLESLI [CAP-VIP, mouse capped peptide from VIP peptides precursor]",0.2649 nM,0.1936 nM,0.1611 nM,0.4401 nM,5.384 nM,–,–,–,–,–,–,–,–
